From publication PMC8811367 come the findings set out here.

By UniProt entry, the sequences of proteins in these tests, tags left out.
UniProt Q8CFI0: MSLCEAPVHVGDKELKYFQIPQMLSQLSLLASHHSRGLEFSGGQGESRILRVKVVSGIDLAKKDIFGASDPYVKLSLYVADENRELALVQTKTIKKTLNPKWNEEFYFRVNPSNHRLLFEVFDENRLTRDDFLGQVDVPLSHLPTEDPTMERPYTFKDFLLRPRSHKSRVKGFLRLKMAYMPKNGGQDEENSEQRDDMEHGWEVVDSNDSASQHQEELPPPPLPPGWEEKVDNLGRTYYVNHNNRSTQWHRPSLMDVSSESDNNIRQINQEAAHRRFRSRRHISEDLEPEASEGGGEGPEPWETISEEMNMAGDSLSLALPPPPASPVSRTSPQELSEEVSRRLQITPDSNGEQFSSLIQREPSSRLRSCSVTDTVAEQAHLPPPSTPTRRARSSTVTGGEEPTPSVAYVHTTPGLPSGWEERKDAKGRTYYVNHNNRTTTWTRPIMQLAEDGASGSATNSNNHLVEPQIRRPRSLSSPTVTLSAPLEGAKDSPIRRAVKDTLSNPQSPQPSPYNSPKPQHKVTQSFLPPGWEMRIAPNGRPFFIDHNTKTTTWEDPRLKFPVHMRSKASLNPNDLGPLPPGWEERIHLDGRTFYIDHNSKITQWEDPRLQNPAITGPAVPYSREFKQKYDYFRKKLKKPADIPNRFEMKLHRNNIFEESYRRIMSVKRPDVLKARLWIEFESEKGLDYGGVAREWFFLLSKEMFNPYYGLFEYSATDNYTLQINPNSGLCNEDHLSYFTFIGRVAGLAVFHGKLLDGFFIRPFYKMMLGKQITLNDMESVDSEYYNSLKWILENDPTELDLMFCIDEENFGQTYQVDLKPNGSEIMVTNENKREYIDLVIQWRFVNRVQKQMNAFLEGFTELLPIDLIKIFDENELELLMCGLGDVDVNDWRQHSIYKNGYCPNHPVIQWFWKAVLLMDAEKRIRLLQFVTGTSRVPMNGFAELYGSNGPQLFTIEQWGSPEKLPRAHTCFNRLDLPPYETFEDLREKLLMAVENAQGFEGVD

Results are given in words; binding and its absence hold for the method and conditions named. Binding seen in cells or lysates may run through a third protein. Some entries that bind do so weakly or less than the wild type.

The target of this assay is T1, nephrin (mouse (endogenous in conditionally immortalized mouse podocytes)) (UniProt Q9QZS7).
T1 sequence: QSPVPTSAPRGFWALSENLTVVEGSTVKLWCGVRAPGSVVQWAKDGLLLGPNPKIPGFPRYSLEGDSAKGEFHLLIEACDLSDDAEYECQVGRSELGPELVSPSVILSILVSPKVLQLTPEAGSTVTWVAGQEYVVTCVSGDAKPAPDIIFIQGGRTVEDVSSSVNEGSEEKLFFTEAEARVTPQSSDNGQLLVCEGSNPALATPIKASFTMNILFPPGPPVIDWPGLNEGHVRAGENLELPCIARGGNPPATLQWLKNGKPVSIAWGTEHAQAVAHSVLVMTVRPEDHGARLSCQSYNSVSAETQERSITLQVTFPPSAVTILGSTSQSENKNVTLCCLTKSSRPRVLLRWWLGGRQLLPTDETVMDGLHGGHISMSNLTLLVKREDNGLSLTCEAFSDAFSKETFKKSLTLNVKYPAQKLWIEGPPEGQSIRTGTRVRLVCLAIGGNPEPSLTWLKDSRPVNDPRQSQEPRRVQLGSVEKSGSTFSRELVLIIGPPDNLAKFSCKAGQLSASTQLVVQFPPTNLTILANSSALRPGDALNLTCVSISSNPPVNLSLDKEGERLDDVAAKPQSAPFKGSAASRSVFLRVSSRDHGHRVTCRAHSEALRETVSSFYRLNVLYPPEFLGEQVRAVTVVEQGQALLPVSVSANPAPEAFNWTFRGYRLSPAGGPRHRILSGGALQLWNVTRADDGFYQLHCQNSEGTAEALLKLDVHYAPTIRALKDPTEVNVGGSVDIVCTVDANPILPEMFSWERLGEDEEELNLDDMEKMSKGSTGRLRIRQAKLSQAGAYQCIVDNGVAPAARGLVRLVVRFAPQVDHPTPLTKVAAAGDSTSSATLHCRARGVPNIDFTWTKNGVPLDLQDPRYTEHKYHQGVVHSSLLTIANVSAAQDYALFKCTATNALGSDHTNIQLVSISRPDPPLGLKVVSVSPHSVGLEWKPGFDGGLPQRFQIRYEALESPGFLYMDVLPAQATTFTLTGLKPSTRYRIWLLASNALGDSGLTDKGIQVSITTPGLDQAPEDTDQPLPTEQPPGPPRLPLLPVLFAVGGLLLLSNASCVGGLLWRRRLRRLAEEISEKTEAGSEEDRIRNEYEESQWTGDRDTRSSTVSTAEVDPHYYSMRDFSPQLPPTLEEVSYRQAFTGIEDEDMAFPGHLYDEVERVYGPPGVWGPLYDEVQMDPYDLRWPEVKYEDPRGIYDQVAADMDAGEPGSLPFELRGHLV
The assay can be described thus: co-IP; mouse podocytes transfected with mouse Nedd4-2 plasmid or empty vector for 48 h; 1 mg of lysate (IP lysis buffer) incubated with anti-nephrin antibody and protein A/G agarose beads; blotted with anti-Nedd4-2.

Consider “neural precursor cells expressing developmentally downregulated protein 4 subtype 2 (Nedd4-2) (from UniProt Q8CFI0 1-1004) (enzyme)”, for which the binding result is “binds”.
